Read-outs that look alike come from different tables or passages of the source. These are yes or no findings as the source states them, for the method shown. In cells and extracts the contact can be indirect. Some binding calls cover weakened binding; strength is not graded here. For part of these data: Sequences can lack the tags named with a protein. One block for each molecule: values may come before it.
Assays:
GFP-IRGM [1] = target: T1, GFP-IRGM (UniProt A1A4Y4); assay: co-IP; sequential immunoprecipitation from HEK293T lysate (Flag-RIPK2 or Flag vector, HA-p62, GFP-IRGM, 12 h): first IP with Flag antibody, elution with flag peptide, second IP with anti-GFP
T1 sequence: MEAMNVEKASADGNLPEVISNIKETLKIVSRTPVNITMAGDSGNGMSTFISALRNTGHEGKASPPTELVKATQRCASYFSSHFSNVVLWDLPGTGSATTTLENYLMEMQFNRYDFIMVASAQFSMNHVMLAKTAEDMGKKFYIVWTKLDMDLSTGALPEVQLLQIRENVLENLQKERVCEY

Flag-NOD1 = target: T2, Flag-NOD1 (UniProt Q9Y239); assay: co-IP; HEK293T cells transiently transfected with tagged proteins; NP-40 lysis buffer, antibody 2 h at 4°C, protein G Dynabeads, washed with ice-cold PBS; Western blot; for p62 with NOD1, NOD2 or RIPK2 also with and without co-expressed IRGM
T2 sequence: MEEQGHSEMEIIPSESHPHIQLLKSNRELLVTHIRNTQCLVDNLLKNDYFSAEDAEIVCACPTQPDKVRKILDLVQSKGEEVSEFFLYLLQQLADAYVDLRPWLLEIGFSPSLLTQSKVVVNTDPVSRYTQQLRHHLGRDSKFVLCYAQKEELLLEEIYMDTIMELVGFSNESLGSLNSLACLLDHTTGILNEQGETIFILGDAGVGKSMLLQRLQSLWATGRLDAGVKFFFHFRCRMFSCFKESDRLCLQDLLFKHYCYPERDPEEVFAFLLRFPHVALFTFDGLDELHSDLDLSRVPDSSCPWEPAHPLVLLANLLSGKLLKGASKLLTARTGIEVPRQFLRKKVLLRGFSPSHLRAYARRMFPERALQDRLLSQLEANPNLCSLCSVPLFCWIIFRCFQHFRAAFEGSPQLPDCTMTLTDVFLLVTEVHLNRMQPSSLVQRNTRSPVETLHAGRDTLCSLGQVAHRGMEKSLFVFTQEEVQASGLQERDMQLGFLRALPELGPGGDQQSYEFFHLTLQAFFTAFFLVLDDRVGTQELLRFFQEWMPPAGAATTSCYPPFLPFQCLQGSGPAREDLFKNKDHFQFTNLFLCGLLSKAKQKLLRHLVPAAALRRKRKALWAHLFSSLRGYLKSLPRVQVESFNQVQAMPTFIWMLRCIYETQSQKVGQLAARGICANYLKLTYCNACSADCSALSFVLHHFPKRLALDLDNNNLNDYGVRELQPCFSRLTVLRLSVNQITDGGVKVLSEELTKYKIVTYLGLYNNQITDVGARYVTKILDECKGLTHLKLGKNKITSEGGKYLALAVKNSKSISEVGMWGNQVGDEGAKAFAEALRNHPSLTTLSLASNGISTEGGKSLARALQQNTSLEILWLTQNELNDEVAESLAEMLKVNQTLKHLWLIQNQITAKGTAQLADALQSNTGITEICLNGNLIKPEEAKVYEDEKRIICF

Flag-NOD2 = Flag-NOD2 (UniProt Q9HC29); assay: as above
GST-IRGM [2] = target: T3, GST-IRGM (UniProt A1A4Y4); assay: pull-down; GST fusion purified on Glutathione Sepharose beads incubated with [35S]-labelled in vitro translated Myc-tagged protein in NETN-E buffer (50 mM Tris pH 8.0, 100 mM NaCl, 6 mM EDTA, 0.5% NP-40, 1 mM DTT), 2 h at 4°C; autoradiography; only the target purified
T3 sequence: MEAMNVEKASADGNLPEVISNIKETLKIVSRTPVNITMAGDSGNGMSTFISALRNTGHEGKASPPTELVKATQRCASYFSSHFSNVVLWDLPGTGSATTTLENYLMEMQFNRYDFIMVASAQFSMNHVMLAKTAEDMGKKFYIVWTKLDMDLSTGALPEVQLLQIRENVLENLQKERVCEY

GFP-IRGM [3] = target: T1, GFP-IRGM; assay: co-IP; HEK293T cells transiently transfected with tagged proteins; NP-40 lysis buffer, antibody 2 h at 4°C, protein G Dynabeads, washed with ice-cold PBS; Western blot; for p62 with NOD1, NOD2 or RIPK2 also with and without co-expressed IRGM
GST-IRGM [4] = target: T3, GST-IRGM; assay: pull-down; GST fusion purified on Glutathione Sepharose beads incubated with [35S]-labelled in vitro translated Myc-tagged protein in NETN-E buffer (50 mM Tris pH 8.0, 100 mM NaCl, 6 mM EDTA, 0.5% NP-40, 1 mM DTT), 2 h at 4°C; autoradiography; only the target purified; remark: listed apart in the source

- binding (GFP-IRGM [1]): binds
- binding (Flag-NOD1): binds
- binding (Flag-NOD2): binds
Molecule: HA-p62 (from UniProt Q13501 1-440)

- binding (GST-IRGM [2]): binds
Molecule: myc-NOD2, in vitro translated (from UniProt Q9HC29 1-1040)

- binding (GFP-IRGM [3]): binds
B1: Flag-NOD1 (protein, UniProt Q9Y239 1-953)
chain: MEEQGHSEMEIIPSESHPHIQLLKSNRELLVTHIRNTQCLVDNLLKNDYFSAEDAEIVCACPTQPDKVRKILDLVQSKGEEVSEFFLYLLQQLADAYVDLRPWLLEIGFSPSLLTQSKVVVNTDPVSRYTQQLRHHLGRDSKFVLCYAQKEELLLEEIYMDTIMELVGFSNESLGSLNSLACLLDHTTGILNEQGETIFILGDAGVGKSMLLQRLQSLWATGRLDAGVKFFFHFRCRMFSCFKESDRLCLQDLLFKHYCYPERDPEEVFAFLLRFPHVALFTFDGLDELHSDLDLSRVPDSSCPWEPAHPLVLLANLLSGKLLKGASKLLTARTGIEVPRQFLRKKVLLRGFSPSHLRAYARRMFPERALQDRLLSQLEANPNLCSLCSVPLFCWIIFRCFQHFRAAFEGSPQLPDCTMTLTDVFLLVTEVHLNRMQPSSLVQRNTRSPVETLHAGRDTLCSLGQVAHRGMEKSLFVFTQEEVQASGLQERDMQLGFLRALPELGPGGDQQSYEFFHLTLQAFFTAFFLVLDDRVGTQELLRFFQEWMPPAGAATTSCYPPFLPFQCLQGSGPAREDLFKNKDHFQFTNLFLCGLLSKAKQKLLRHLVPAAALRRKRKALWAHLFSSLRGYLKSLPRVQVESFNQVQAMPTFIWMLRCIYETQSQKVGQLAARGICANYLKLTYCNACSADCSALSFVLHHFPKRLALDLDNNNLNDYGVRELQPCFSRLTVLRLSVNQITDGGVKVLSEELTKYKIVTYLGLYNNQITDVGARYVTKILDECKGLTHLKLGKNKITSEGGKYLALAVKNSKSISEVGMWGNQVGDEGAKAFAEALRNHPSLTTLSLASNGISTEGGKSLARALQQNTSLEILWLTQNELNDEVAESLAEMLKVNQTLKHLWLIQNQITAKGTAQLADALQSNTGITEICLNGNLIKPEEAKVYEDEKRIICF

- binding (GST-IRGM [4]): binds
B2: myc-NOD1, in vitro translated (protein, UniProt Q9Y239 1-953)
chain: MEEQGHSEMEIIPSESHPHIQLLKSNRELLVTHIRNTQCLVDNLLKNDYFSAEDAEIVCACPTQPDKVRKILDLVQSKGEEVSEFFLYLLQQLADAYVDLRPWLLEIGFSPSLLTQSKVVVNTDPVSRYTQQLRHHLGRDSKFVLCYAQKEELLLEEIYMDTIMELVGFSNESLGSLNSLACLLDHTTGILNEQGETIFILGDAGVGKSMLLQRLQSLWATGRLDAGVKFFFHFRCRMFSCFKESDRLCLQDLLFKHYCYPERDPEEVFAFLLRFPHVALFTFDGLDELHSDLDLSRVPDSSCPWEPAHPLVLLANLLSGKLLKGASKLLTARTGIEVPRQFLRKKVLLRGFSPSHLRAYARRMFPERALQDRLLSQLEANPNLCSLCSVPLFCWIIFRCFQHFRAAFEGSPQLPDCTMTLTDVFLLVTEVHLNRMQPSSLVQRNTRSPVETLHAGRDTLCSLGQVAHRGMEKSLFVFTQEEVQASGLQERDMQLGFLRALPELGPGGDQQSYEFFHLTLQAFFTAFFLVLDDRVGTQELLRFFQEWMPPAGAATTSCYPPFLPFQCLQGSGPAREDLFKNKDHFQFTNLFLCGLLSKAKQKLLRHLVPAAALRRKRKALWAHLFSSLRGYLKSLPRVQVESFNQVQAMPTFIWMLRCIYETQSQKVGQLAARGICANYLKLTYCNACSADCSALSFVLHHFPKRLALDLDNNNLNDYGVRELQPCFSRLTVLRLSVNQITDGGVKVLSEELTKYKIVTYLGLYNNQITDVGARYVTKILDECKGLTHLKLGKNKITSEGGKYLALAVKNSKSISEVGMWGNQVGDEGAKAFAEALRNHPSLTTLSLASNGISTEGGKSLARALQQNTSLEILWLTQNELNDEVAESLAEMLKVNQTLKHLWLIQNQITAKGTAQLADALQSNTGITEICLNGNLIKPEEAKVYEDEKRIICF
modifications: [35S] radiolabelled

Source: publication PMC9713718
